Reference: paper PMC3230587
These are yes or no findings as the source states them, for the method shown. In cells and extracts the contact can be indirect. Some entries that bind do so weakly or less than the wild type. Tags and fused reporters may be left off the sequences shown.

T1: Drosha-FLAG (Drosha-WT) (UniProt Q9NRR4)
T1 sequence: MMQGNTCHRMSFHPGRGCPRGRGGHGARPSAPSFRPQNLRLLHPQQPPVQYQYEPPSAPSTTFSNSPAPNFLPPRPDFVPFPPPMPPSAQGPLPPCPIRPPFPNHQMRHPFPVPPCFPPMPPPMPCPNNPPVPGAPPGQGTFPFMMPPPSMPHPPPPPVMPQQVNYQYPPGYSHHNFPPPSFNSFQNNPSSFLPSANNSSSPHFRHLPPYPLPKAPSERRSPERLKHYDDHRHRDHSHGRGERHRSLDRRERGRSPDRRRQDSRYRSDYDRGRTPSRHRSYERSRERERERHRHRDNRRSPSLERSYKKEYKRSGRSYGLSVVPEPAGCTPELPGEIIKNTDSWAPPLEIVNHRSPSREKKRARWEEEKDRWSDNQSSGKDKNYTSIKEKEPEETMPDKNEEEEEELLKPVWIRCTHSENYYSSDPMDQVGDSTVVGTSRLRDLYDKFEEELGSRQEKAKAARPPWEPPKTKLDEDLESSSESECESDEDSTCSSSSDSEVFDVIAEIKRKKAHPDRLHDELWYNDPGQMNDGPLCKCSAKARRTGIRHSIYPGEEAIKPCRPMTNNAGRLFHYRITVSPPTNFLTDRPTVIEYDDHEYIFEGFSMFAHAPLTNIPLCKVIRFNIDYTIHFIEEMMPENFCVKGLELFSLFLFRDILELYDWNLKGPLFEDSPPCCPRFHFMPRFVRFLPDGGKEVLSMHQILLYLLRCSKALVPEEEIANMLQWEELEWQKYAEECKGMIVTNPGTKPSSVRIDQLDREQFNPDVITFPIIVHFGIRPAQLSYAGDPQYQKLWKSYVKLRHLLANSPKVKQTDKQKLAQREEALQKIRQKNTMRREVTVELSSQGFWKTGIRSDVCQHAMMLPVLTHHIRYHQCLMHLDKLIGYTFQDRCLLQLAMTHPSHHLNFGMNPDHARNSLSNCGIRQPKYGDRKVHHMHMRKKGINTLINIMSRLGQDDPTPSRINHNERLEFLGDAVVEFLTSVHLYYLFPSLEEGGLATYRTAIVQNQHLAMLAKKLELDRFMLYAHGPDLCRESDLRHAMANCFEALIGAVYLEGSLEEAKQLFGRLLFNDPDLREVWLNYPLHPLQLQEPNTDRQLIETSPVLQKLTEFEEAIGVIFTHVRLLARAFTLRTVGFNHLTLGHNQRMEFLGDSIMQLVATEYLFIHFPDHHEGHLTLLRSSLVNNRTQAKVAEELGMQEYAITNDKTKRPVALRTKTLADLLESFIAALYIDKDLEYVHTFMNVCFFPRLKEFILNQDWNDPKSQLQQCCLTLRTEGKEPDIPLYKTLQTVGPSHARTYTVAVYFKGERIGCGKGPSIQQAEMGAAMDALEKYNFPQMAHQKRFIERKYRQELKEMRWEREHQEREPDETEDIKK

T2: FLAG-RNH1 (human) (UniProt P13489)
T2 sequence: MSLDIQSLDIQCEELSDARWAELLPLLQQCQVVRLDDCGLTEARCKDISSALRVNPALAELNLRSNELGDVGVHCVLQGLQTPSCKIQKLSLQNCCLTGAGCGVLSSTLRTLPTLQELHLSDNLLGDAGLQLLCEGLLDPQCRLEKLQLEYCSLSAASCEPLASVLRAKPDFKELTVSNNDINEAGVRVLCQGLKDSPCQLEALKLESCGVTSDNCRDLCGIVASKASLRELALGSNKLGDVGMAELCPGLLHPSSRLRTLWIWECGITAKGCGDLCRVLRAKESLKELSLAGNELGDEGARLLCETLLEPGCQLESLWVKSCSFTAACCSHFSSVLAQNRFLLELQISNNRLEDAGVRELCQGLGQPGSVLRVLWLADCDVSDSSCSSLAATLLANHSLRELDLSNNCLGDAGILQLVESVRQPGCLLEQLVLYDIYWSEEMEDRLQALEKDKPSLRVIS


Assays:
Drosha-FLAG (Drosha-WT) = biological target: T1, Drosha-FLAG (Drosha-WT); experiment: co-IP; lysates of transfected 293T cells in IP buffer (150 mM NaCl, 25 mM HEPES-KOH pH 7.5, 0.5% Triton X-100), anti-FLAG M2 affinity agarose 2 hr at 4 C, four washes, immunoblot; for FLAG-RNH1 with or without overexpressed PTEN
FLAG-RNH1 (human) = biological target: T2, FLAG-RNH1 (human); experiment: as above

| Binder | binding (Drosha-FLAG (Drosha-WT)) | binding (FLAG-RNH1 (human)) |
| --- | --- | --- |
| hemagglutinin (HA)-tagged RNH1 (ribonuclease/angiogenin inhibitor 1) (protein, UniProt P13489 1-461) MSLDIQSLDIQCEELSDARWAELLPLLQQCQVVRLDDCGLTEARCKDISSALRVNPALAELNLRSNELGDVGVHCVLQGLQTPSCKIQKLSLQNCCLTGAGCGVLSSTLRTLPTLQELHLSDNLLGDAGLQLLCEGLLDPQCRLEKLQLEYCSLSAASCEPLASVLRAKPDFKELTVSNNDINEAGVRVLCQGLKDSPCQLEALKLESCGVTSDNCRDLCGIVASKASLRELALGSNKLGDVGMAELCPGLLHPSSRLRTLWIWECGITAKGCGDLCRVLRAKESLKELSLAGNELGDEGARLLCETLLEPGCQLESLWVKSCSFTAACCSHFSSVLAQNRFLLELQISNNRLEDAGVRELCQGLGQPGSVLRVLWLADCDVSDSSCSSLAATLLANHSLRELDLSNNCLGDAGILQLVESVRQPGCLLEQLVLYDIYWSEEMEDRLQALEKDKPSLRVIS | binds |  |
| Drosha, endogenous (enzyme, UniProt Q9NRR4 1-1374) MMQGNTCHRMSFHPGRGCPRGRGGHGARPSAPSFRPQNLRLLHPQQPPVQYQYEPPSAPSTTFSNSPAPNFLPPRPDFVPFPPPMPPSAQGPLPPCPIRPPFPNHQMRHPFPVPPCFPPMPPPMPCPNNPPVPGAPPGQGTFPFMMPPPSMPHPPPPPVMPQQVNYQYPPGYSHHNFPPPSFNSFQNNPSSFLPSANNSSSPHFRHLPPYPLPKAPSERRSPERLKHYDDHRHRDHSHGRGERHRSLDRRERGRSPDRRRQDSRYRSDYDRGRTPSRHRSYERSRERERERHRHRDNRRSPSLERSYKKEYKRSGRSYGLSVVPEPAGCTPELPGEIIKNTDSWAPPLEIVNHRSPSREKKRARWEEEKDRWSDNQSSGKDKNYTSIKEKEPEETMPDKNEEEEEELLKPVWIRCTHSENYYSSDPMDQVGDSTVVGTSRLRDLYDKFEEELGSRQEKAKAARPPWEPPKTKLDEDLESSSESECESDEDSTCSSSSDSEVFDVIAEIKRKKAHPDRLHDELWYNDPGQMNDGPLCKCSAKARRTGIRHSIYPGEEAIKPCRPMTNNAGRLFHYRITVSPPTNFLTDRPTVIEYDDHEYIFEGFSMFAHAPLTNIPLCKVIRFNIDYTIHFIEEMMPENFCVKGLELFSLFLFRDILELYDWNLKGPLFEDSPPCCPRFHFMPRFVRFLPDGGKEVLSMHQILLYLLRCSKALVPEEEIANMLQWEELEWQKYAEECKGMIVTNPGTKPSSVRIDQLDREQFNPDVITFPIIVHFGIRPAQLSYAGDPQYQKLWKSYVKLRHLLANSPKVKQTDKQKLAQREEALQKIRQKNTMRREVTVELSSQGFWKTGIRSDVCQHAMMLPVLTHHIRYHQCLMHLDKLIGYTFQDRCLLQLAMTHPSHHLNFGMNPDHARNSLSNCGIRQPKYGDRKVHHMHMRKKGINTLINIMSRLGQDDPTPSRINHNERLEFLGDAVVEFLTSVHLYYLFPSLEEGGLATYRTAIVQNQHLAMLAKKLELDRFMLYAHGPDLCRESDLRHAMANCFEALIGAVYLEGSLEEAKQLFGRLLFNDPDLREVWLNYPLHPLQLQEPNTDRQLIETSPVLQKLTEFEEAIGVIFTHVRLLARAFTLRTVGFNHLTLGHNQRMEFLGDSIMQLVATEYLFIHFPDHHEGHLTLLRSSLVNNRTQAKVAEELGMQEYAITNDKTKRPVALRTKTLADLLESFIAALYIDKDLEYVHTFMNVCFFPRLKEFILNQDWNDPKSQLQQCCLTLRTEGKEPDIPLYKTLQTVGPSHARTYTVAVYFKGERIGCGKGPSIQQAEMGAAMDALEKYNFPQMAHQKRFIERKYRQELKEMRWEREHQEREPDETEDIKK |  | binds |
